# System: E. granulosus-specific IgG antibodies
# Experiment: Indirect ELISA (iELISA) for serodiagnosis of cystic echinococcosis in sheep
# Details: for Analytical specificity: cross-reaction with C. tenuicollis-positive goat (n=7) and C. cerebralis-positive sheep (n=7) sera
substance,measurement,setting,value
Cystatin,Diagnostic sensitivity (DSN),"24 positive sheep sera, compared with necropsy",79.17% (19/24)
same,Diagnostic specificity (DSP),"48 negative sheep sera, compared with necropsy",77.08% (37/48)
same,Diagnostic accuracy,"72 sheep sera, compared with necropsy",77.78% (56/72)
same,Analytical specificity,,50% (7/14)
same,Analytical specificity,listed as rEg-cystatin,50%

# From paper PMC5428777, “Molecular Characteristics and Serodiagnostic Potential of Dihydrofolate Reductase from Echinococcus granulosus” (Scientific Reports, 2017)
